Results published in paper PMC4848882.
These are yes or no findings as the source states them, for the method shown. For some of these results: Binding seen in cells or lysates may run through a third protein. Some results given as binding are weak or reduced against the parent protein; the word gives no strength.

Protein sequences, listed by entry. Tags and fused reporters are not part of them. Lines headed by an entry give the natural chain unless they say otherwise; changes in a name come on top. Chains listed by the source or under a name are the forms on record and can include a tag or linker. Residues count along the entry.
Flag-tagged human RTN3-RHD deletion mutant (pCMV-Flag-hRTN3-RHD) (O95197, residues 844-1032): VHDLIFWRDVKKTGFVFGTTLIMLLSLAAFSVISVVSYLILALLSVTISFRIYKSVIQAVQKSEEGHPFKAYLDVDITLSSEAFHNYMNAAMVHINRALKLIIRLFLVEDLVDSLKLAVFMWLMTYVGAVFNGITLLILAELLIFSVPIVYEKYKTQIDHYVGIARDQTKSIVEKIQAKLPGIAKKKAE
RTN3 fragment containing amino acid residues 86 to 236 (clone from a human fetal liver cDNA library in pACT2) (O95197, residues 882-1032): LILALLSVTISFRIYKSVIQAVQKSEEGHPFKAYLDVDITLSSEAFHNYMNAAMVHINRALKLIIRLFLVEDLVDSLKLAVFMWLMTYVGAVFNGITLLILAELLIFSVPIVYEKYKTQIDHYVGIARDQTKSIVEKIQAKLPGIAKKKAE
Flag-tagged full-length human RTN3 (pCMV-Flag-hRTN3) (O95197-3, form named): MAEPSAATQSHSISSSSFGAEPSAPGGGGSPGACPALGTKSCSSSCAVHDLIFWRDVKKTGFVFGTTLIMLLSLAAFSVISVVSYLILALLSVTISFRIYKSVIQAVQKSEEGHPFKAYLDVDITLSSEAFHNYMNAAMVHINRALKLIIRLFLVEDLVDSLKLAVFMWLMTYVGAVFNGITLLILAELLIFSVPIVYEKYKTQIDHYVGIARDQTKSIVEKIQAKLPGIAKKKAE
UniProt P61073: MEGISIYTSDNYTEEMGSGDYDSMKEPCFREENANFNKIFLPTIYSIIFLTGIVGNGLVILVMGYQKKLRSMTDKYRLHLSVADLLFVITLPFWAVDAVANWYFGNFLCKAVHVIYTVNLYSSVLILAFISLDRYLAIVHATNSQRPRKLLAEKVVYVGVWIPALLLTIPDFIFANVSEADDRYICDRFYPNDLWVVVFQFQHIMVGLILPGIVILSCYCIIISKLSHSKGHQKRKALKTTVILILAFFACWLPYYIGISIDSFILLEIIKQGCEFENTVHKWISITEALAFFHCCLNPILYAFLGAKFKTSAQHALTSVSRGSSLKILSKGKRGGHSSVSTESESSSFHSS

Key:
[1] = biological target: Flag-tagged full-length human RTN3 (pCMV-Flag-hRTN3) (human) (UniProt O95197); experiment: co-IP; reverse co-IP: HEK293 cells co-transfected; lysis in RIPA buffer; immunoprecipitation with anti-Flag M2 affinity gel overnight at 4 °C, control IgG; immunoblot
[2] = biological target: Myc-tagged human CXCR4 (pcDNA3.1-Myc-hCXCR4) (human) (UniProt P61073); experiment: co-IP; HEK293 cells co-transfected; lysis in RIPA buffer (25 mM Tris-HCl pH 7.5, 150 mM NaCl, 1% NP-40, 0.5% sodium deoxycholate); immunoprecipitation with anti-Myc agarose overnight at 4 °C, control IgG; immunoblot
[3] = biological target: human full-length CXCR4 fused to the GAL4 DNA-binding domain (pGBKT7-hCXCR4) (human) (UniProt P61073); experiment: two-hybrid; yeast AH109 with pGBKT7-hCXCR4 as bait; screen of a human fetal liver cDNA library in the GAL4 activation domain vector pACT2

binding [2]	Substance	other results
–	Myc-tagged human CXCR4 (pcDNA3.1-Myc-hCXCR4) (from UniProt P61073 1-352) (receptor)	binding [1]: binds
binds	Flag-tagged human RTN3-RHD deletion mutant (pCMV-Flag-hRTN3-RHD) (from UniProt O95197-3 48-236) (domain or fragment)	–
binds	Flag-tagged full-length human RTN3 (pCMV-Flag-hRTN3) (from UniProt O95197-3 1-236)	–
–	RTN3 fragment containing amino acid residues 86 to 236 (clone from a human fetal liver cDNA library in pACT2) (from UniProt O95197-3 86-236) (domain or fragment)	binding [3]: binds
